In publication PMC11532476:
Results are given in words; binding and its absence hold for the method and conditions named. Binding seen in cells or lysates may run through a third protein. Here binding means that the protein was enriched with, or labelled near, the bait; the list need not be complete.

Amino acid sequences for entries named in this document (tags omitted).
UniProt P49327: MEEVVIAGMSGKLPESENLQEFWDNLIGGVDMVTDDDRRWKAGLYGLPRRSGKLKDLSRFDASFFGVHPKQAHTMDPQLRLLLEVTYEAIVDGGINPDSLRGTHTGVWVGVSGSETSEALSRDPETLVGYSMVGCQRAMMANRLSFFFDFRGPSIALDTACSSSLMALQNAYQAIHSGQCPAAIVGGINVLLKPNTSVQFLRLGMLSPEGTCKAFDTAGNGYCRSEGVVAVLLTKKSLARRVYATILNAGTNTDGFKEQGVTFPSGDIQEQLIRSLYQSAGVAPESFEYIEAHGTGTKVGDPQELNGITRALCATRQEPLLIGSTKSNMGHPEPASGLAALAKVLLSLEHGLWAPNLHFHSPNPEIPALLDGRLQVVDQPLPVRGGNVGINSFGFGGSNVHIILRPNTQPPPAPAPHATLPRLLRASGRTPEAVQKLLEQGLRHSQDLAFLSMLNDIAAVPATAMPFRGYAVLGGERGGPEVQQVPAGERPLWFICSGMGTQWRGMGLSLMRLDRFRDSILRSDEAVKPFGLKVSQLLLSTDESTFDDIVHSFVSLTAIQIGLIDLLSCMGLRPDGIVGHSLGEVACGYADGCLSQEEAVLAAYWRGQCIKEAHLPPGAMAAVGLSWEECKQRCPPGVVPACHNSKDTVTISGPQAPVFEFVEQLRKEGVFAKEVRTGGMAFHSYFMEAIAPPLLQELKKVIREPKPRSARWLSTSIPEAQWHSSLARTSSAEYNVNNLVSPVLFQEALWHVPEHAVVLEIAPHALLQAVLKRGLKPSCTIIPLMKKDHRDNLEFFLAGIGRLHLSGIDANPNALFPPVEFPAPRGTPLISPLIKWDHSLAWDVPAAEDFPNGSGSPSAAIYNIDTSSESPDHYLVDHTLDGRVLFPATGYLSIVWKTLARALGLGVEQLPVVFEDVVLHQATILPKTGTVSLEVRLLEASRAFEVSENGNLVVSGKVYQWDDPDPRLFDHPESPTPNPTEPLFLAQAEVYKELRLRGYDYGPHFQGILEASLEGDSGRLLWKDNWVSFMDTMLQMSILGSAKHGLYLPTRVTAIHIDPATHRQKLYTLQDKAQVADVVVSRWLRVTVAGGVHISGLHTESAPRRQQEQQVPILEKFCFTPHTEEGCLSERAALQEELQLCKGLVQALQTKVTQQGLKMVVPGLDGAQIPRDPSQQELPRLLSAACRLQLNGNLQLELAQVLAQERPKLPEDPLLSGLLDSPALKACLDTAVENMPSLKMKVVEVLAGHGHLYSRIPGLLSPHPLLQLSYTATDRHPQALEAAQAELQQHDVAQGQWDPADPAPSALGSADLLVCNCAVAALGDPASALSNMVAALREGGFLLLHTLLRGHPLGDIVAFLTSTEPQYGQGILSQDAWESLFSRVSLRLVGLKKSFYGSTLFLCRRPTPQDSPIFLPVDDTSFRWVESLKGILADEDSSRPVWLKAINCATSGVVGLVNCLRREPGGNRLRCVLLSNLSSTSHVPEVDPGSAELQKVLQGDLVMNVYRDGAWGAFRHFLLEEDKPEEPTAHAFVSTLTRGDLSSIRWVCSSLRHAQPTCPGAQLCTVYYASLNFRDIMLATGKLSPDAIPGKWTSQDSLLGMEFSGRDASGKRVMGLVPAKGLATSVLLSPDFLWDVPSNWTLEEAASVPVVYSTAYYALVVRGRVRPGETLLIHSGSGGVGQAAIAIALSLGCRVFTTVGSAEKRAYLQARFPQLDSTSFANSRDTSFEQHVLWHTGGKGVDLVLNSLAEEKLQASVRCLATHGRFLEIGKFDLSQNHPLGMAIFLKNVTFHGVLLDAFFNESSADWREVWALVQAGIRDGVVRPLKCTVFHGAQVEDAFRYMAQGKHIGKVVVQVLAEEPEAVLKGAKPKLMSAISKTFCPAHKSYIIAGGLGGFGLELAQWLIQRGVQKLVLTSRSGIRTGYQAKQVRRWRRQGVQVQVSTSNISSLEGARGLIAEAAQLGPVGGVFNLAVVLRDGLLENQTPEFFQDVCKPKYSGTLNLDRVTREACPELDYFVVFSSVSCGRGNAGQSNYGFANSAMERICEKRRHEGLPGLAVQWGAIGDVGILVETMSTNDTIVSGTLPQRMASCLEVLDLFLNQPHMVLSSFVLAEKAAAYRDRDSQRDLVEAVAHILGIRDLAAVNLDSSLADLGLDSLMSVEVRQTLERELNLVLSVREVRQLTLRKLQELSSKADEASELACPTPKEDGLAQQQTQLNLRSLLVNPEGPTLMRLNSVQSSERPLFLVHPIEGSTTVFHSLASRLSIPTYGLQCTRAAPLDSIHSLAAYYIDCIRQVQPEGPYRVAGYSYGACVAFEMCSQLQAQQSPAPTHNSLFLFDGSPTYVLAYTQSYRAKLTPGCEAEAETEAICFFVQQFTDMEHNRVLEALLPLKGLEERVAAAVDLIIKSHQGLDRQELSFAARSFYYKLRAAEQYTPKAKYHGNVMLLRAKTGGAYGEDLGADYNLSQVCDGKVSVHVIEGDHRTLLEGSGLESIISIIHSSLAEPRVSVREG

Target: Fatty acid synthase (FASN), endogenous in osteosarcoma cells (human (endogenous in 143B and U2OS)) (UniProt P49327)
Experiment: affinity purification with mass spectrometry; co-immunoprecipitation of FASN from OS cells, silver staining and mass spectrometry; 127 proteins identified

binding: binds
Substance: Valosin-containing protein (VCP), endogenous in osteosarcoma cells (from UniProt P55072 1-806)
